Values from PubChem BioAssay AID1159584 (Peter MacCallum Cancer Centre, 2016).
Screen: 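Knock-downs that harm CDH1-null cells more than parental MCF10A cells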 (primary screen). System: human MCF10A breast epithelial cells, parental and CDH1-null. Knock-down reagent: siRNA against human genes. Measurement: 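ATP luminescence (CellTiter-Glo) viability per line relative to mean mock wells over all plates, and the ratio of CDH1-null to parental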. Scale: CDH1-null / parental viability ratio: higher = CDH1-null cells survive relatively better than parental; CDH1-null viability vs mock: higher = more viable CDH1-null cells; parental viability vs mock: higher = more viable parental cells.
The deposit covers about 18,000 reagents; below is an unselected part. Not given: the amount of reagent, the time to read-out.

| Gene | CDH1-null / parental viability ratio | CDH1-null viability vs mock (fraction of mock) | parental viability vs mock (fraction of mock) |
| --- | --- | --- | --- |
| KDM2B (GeneID 84678) | 0.96 | 0.81 | 0.84 |
| ANKLE1 (GeneID 126549) | 0.81 | 0.44 | 0.54 |
| HACL2 (GeneID 10994) | 0.95 | 0.79 | 0.83 |
| MAN1B1 (GeneID 11253) | 1.03 | 1 | 0.97 |
| MOV10L1 (GeneID 54456) | 1.01 | 0.68 | 0.67 |
| MESD (GeneID 23184) | 1.36 | 1.06 | 0.78 |
| RAB9B (GeneID 51209) | 0.93 | 0.84 | 0.9 |
| IGF2-AS (GeneID 51214) | 0.87 | 0.78 | 0.9 |
| SUGCT (GeneID 79783) | 1.07 | 0.62 | 0.58 |
| IFT81 (GeneID 28981) | 0.82 | 0.69 | 0.84 |
| PARD6B (GeneID 84612) | 0.88 | 0.81 | 0.92 |
| MTERF1 (GeneID 7978) | 0.65 | 0.55 | 0.84 |
| LRRC71 (GeneID 149499) | 1.19 | 0.74 | 0.62 |
| CCDC70 (GeneID 83446) | 0.84 | 0.96 | 1.14 |
| RNASE6 (GeneID 6039) | 1.1 | 0.78 | 0.71 |
| METTL25B (GeneID 51093) | 0.87 | 0.76 | 0.87 |
| CD58 (GeneID 965) | 0.86 | 0.67 | 0.78 |
| HOXA13 (GeneID 3209) | 1.12 | 0.96 | 0.86 |
| AP2A2 (GeneID 161) | 0.81 | 0.26 | 0.32 |
| PNMA5 (GeneID 114824) | 1.09 | 0.6 | 0.55 |
| SP3 (GeneID 6670) | 1.18 | 1.18 | 1 |
| IL17C (GeneID 27189) | 1.19 | 0.92 | 0.77 |
| PSMB6 (GeneID 5694) | 1.42 | 0.44 | 0.31 |
| IGFALS (GeneID 3483) | 1.02 | 0.64 | 0.63 |
| SYCN (GeneID 342898) | 1.34 | 1.21 | 0.9 |
| TMEM185A (GeneID 84548) | 0.96 | 0.64 | 0.67 |
| TMEM254 (GeneID 80195) | 0.74 | 0.37 | 0.5 |
| STEAP3 (GeneID 55240) | 1.09 | 1 | 0.92 |
| RAB2A (GeneID 5862) | 0.92 | 1.05 | 1.14 |
| NFS1 (GeneID 9054) | 1 | 0.89 | 0.89 |
| MYO16 (GeneID 23026) | 0.93 | 0.81 | 0.87 |
| COPRS (GeneID 55352) | 1.1 | 0.88 | 0.8 |
| PCNT (GeneID 5116) | 0.89 | 0.4 | 0.45 |

4 neighbouring entries already listed:
| Gene | CDH1-null / parental viability ratio | CDH1-null viability vs mock (fraction of mock) | parental viability vs mock (fraction of mock) |
| --- | --- | --- | --- |
| RAB2A (GeneID 5862) | 0.92 | 1.05 | 1.14 |
| NFS1 (GeneID 9054) | 1 | 0.89 | 0.89 |
| MYO16 (GeneID 23026) | 0.93 | 0.81 | 0.87 |
| COPRS (GeneID 55352) | 1.1 | 0.88 | 0.8 |

Continued.
| Gene | CDH1-null / parental viability ratio | CDH1-null viability vs mock (fraction of mock) | parental viability vs mock (fraction of mock) |
| --- | --- | --- | --- |
| FBF1 (GeneID 85302) | 1.24 | 0.77 | 0.62 |
| ZNF33A (GeneID 7581) | 1.14 | 0.91 | 0.8 |
| KNL1 (GeneID 57082) | 0.88 | 0.6 | 0.68 |
| HIVEP1 (GeneID 3096) | 0.8 | 0.64 | 0.8 |
| LMX1A (GeneID 4009) | 0.98 | 0.86 | 0.88 |
| NLRP4 (GeneID 147945) | 0.91 | 0.73 | 0.8 |
| BDKRB1 (GeneID 623) | 1.23 | 0.96 | 0.78 |
| NRIP1 (GeneID 8204) | 1.04 | 0.94 | 0.9 |
| PRDX6 (GeneID 9588) | 0.85 | 0.84 | 0.99 |
| KIFC2 (GeneID 90990) | 0.76 | 0.52 | 0.68 |
| MET (GeneID 4233) | 1.04 | 0.88 | 0.85 |
| PACRG (GeneID 135138) | 0.77 | 0.27 | 0.35 |
| COL4A2 (GeneID 1284) | 0.96 | 0.77 | 0.8 |
| CIAO3 (GeneID 64428) | 0.97 | 0.64 | 0.66 |
| ACAD8 (GeneID 27034) | 0.74 | 0.64 | 0.86 |
| ZNF665 (GeneID 79788) | 1.1 | 0.55 | 0.5 |
| ESS2 (GeneID 8220) | 1 | 0.76 | 0.76 |
| CRISP2 (GeneID 7180) | 1.18 | 0.92 | 0.78 |
| HLA-DPB1 (GeneID 3115) | 0.83 | 0.67 | 0.81 |
| BTBD2 (GeneID 55643) | 1.02 | 0.96 | 0.94 |
| CYP20A1 (GeneID 57404) | 1.01 | 0.93 | 0.92 |
| TECRL (GeneID 253017) | 1.04 | 0.88 | 0.85 |
| FBXO3 (GeneID 26273) | 0.94 | 0.79 | 0.84 |
| PAFAH1B2 (GeneID 5049) | 0.94 | 0.62 | 0.66 |
| TBCC (GeneID 6903) | 0.89 | 0.68 | 0.76 |
| VPS28 (GeneID 51160) | 1.06 | 0.72 | 0.68 |
| RTN4 (GeneID 57142) | 1 | 0.8 | 0.8 |
| RPS19 (GeneID 6223) | 1.2 | 0.36 | 0.3 |
| LCE2C (GeneID 353140) | 0.92 | 0.76 | 0.83 |
| AGXT2 (GeneID 64902) | 0.83 | 0.45 | 0.54 |
| MOB1A (GeneID 55233) | 0.84 | 0.72 | 0.86 |
| CCK (GeneID 885) | 1.22 | 0.62 | 0.51 |
| HOXB4 (GeneID 3214) | 1.19 | 1.13 | 0.95 |
| TMC3 (GeneID 342125) | 1.03 | 1.43 | 1.39 |
| EEIG2 (GeneID 284611) | 1.06 | 1.08 | 1.02 |
